Results: patent US12673106B2, “Modulators of nuclear receptor subfamily 4 group A member 1 (NR4A1) and uses thereof” (University of Florida Research Foundation, Incorporated, priority 2020, dated 2026)
At least one structure is not confirmed: it was looked up by name or label, or the drawing left a doubt.

Tested on: B16F10 melanoma
Assay: B16F10 melanoma model in C57BL/6J mice
Assay type: in vivo, mouse
Settings: B16F10 in C57BL/6J male mice; 1.8 mg/kg NR-V04 or 0.75 mg/kg celastrol twice weekly for 3 weeks
Method: FIG. 10A-10C. […] Tumor growth were monitored via palpation. N=7 mice/group. FIG. 10A and FIG. 10B are the same experiment, but FIG. 10B includes only control vehicle and NR-V04 treated groups in FIG. 10B.
FIG. 13A-FIG. 13C. Influence of NR-V04 treatment on TI-Tregs from (FIG. 13A) B16F10 melanoma, 1.8 mg/kg twice weekly for 3 weeks; (FIG. 13B) RENCA renal cancer model, 20 mg/kg once a week for 3 weeks; (FIG. 13C-13D) Py8119 breast cancer model, 8 mg/kg once a week for 3 weeks; with FIG. 13C showing the ratios between Treg/Tconv and FIG. 13D showing Treg/CD8+ T cell ratios.

## CC1=C(O)C(=O)C=C2C1=CC=C1[C@@]2(C)CC[C@@]2(C)[C@@H]3C[C@](C)(C(=O)O)CC[C@]3(C)CC[C@]12C [celastrol, reference compound]
  tumor growth: opposite effect on tumor growth
